In patent publication US7109203B2, “Sulfonamide derivatives” (Novartis AG, priority 2001, dated 2006):
Some results were stated once for a whole list of compounds, not compound by compound.

Molecular target: T1, human bradykinin B1 receptor (Homo sapiens, UniProt P46663)
T1 construct: To upregulate expression of the B1 receptor the cells are treated with 100 units/ml of IL-1β; endogenous in cells; host or cells: WI-38 cells treated with 100 units/ml IL-1β for 3 hours
T1 sequence (P46663 1-353): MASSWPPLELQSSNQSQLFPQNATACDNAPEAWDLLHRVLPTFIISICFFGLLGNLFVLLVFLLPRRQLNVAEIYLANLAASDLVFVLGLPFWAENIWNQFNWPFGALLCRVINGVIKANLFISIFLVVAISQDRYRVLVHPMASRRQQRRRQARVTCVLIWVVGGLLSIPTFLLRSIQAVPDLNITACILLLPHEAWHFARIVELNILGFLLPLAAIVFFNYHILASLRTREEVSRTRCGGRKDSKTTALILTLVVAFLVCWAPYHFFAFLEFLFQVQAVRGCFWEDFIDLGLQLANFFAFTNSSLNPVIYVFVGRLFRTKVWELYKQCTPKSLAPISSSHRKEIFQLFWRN
Experiment: Test I: Bradykinin Receptor Binding Assay ([3H]-desArg10kallidin displacement, IL-1β-treated WI-38 cells)
Settings: bradykinin antagonist activity, statement in words

NC(=O)CN(CCOc1ccc2c(c1)CCC2)S(=O)(=O)c1ccc(Cl)cc1Cl [Example 2]
active at the human B1 bradykinin receptor: active
